US20240247257A1, “SYSTEM AND METHODS FOR INSERTION AND EDITING OF LARGE NUCLEIC ACID FRAGMENTS” (WUHAN UNIVERSITY, priority 2021, published 2024)
For at least one compound, name, drawing or mass did not settle the structure.

Experiments:
Type in all cases: cell-based, human
RPE cells [1] = assay: Proliferation of RPE cells by cell counting; settings: 1 or 2.5 μM
Experimental: (§1) FIG. 11. GRAND editing mediates precise large insertion in non-dividing cells. a, The proliferation of RPE cells at 6 h, 12 h, 24 h, 48 h after treated with 1 or 2.5 μM Palbociclib, or 100, 200, 400 ng/mL Nocodazole was determined by cell counting. b, The cell cycles of RPE cells were determined by propidium iodide staining. c, Detection of the nascent DNA synthesis in RPE cells by 5-ethynyl-2′-deoxyuridine (EdU) incorporation assay. The proportions of EdU-labeled positive cells were determined by flow cytometry. d, A 100 bp DNA fragment was inserted at EGFP (595-647) site in non-dividing RPE cells using GRAND editing. The accurate editing and imperfect events were quantified by deep sequencing. Mean±s.d. of n=3 independent biological replicates for a, b, d, and n=3-5 independent biological replicates for c.
(§2) To determine whether GRAND editing-mediated targeted insertion is cell cycle independent, we used small molecule drugs to arrest the cell cycle of human retinal pigment epithelium (RPE) cell line. Palbociclib, a Cdk4 and Cdk6 inhibitor, effectively arrests cells in G1 phase. […] Next, we conducted the GRAND editing on RPE cells with Palbociclib or Nocodazole treatment.

RPE cells [2] = assay: Cell cycle of RPE cells, propidium iodide staining, flow cytometry
Experimental: as §1, §2

RPE cells [3] = assay: EdU incorporation assay of nascent DNA synthesis in RPE cells
Experimental: as §1, §2

CC(=O)c1c(C)c2cnc(Nc3ccc(N4CCNCC4)cn3)nc2n(C2CCCC2)c1=O [Palbociclib]
growth of RPE cells (RPE cells [1]): fully inhibited
cell cycle arrest (RPE cells [2]): fully arrested at G1 phase
global DNA replication (EdU incorporation) (RPE cells [3]; at 12-48 hours): near fully inhibited replication
global DNA replication (EdU incorporation) (RPE cells [3]; at 6 hours): significantly suppressed global DNA replication
